# Laboratory results: PubChem BioAssay AID1688 (National Center for Advancing Translational Sciences (NCATS), 2009)
# Screen size: about 220,000 compounds; about 2,400 (1.1%) were called active. This list was built around the results that the source calls inconclusive (neither active nor inactive); the mix of calls is not that of the screen. Calls follow the shape of the dose curve; as a rule, active = well fitted inhibition curve with a large enough effect; inconclusive = small, poorly fitted or top-dose-only effect, or effect the other way; inactive = no such curve, though single readings can be large or run the other way. A potency beside an inconclusive call is a rough fit, not a confirmed value.
# Experiment: qHTS Multiplex Assay to Identify Dual Action Probes in a Cell Model of Huntington: Aggregate Formation (GFP); also: nearly all actives have a fitted effect of over 60% in size
# Conditions: PC12 HttQ103-GFP aggregates, Acumen cytometry, 40 h; activity change, negative = inhibition: at 46.1 µM (top of the series) unless noted
# Method in brief: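 Using laser scanning cytometry, GFP-positive aggregates were counted after lysis of PC12 cells induced with 100 nM tebufenozide to express HTT exon 1 Q103–GFP. Compounds were tested in titration.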
# % is scaled to controls: 0 for no effect and ±100 for the full control effect; potency is read from the fitted curve at half-maximal effect.
Compound,Potency,"activity change, negative = inhibition"
OCCNCCOc1ccccc1-c1ccccc1,"inconclusive: 0.562 µM [inhibitor, full curve, poor fit]",
Cn1c(=O)c2cc(S(=O)(=O)Nc3cccc(F)c3)ccc2n(C)c1=O,"inconclusive: 11.2 µM [inhibitor, single point]",
CC(=O)OCC(=O)[C@@]1(O)CCC2C3C[C@H](C)C4=CC(=O)C=CC4(C)C3C(O)CC21C (stereo partly specified),,inactive: -5.9%
OCCCNc1nccc(-c2cc(Nc3cccc(Cl)c3)ncn2)n1,active: 0.794 µM,
Cc1ccc(-n2nnnc2SCn2nnc3ccccc3c2=O)c(C)c1,active: 8.91 µM,
O=C(NC(=S)N1CCN(c2ccc(Cl)cc2[N+](=O)[O-])CC1)c1ccco1,,inactive: -11.1%
COc1ccccc1NC(=O)CCc1nc2ccccc2s1,"inconclusive: 11.2 µM [activator, single point]",
CSc1nc2ccccc2n1CC(=O)Nc1c(C)n(C)n(-c2ccccc2)c1=O,"inconclusive: 22.4 µM [inhibitor, single point]",
Cc1cc(C(=O)N/N=C/c2cc(Br)ccc2OC(=O)c2ccc(Br)cc2)n[nH]1,active: 10 µM,
C/C=C(/C)C(=O)O[C@@H]1c2c(ccc3ccc(=O)oc23)O[C@@H]1C(C)(C)OC(=O)/C(C)=C\C,"inconclusive: 35.5 µM [inhibitor, single point]",
Cc1nc(C)n(CC(O)COc2ccc3cc(Br)ccc3c2)n1 (stereo unspecified),active: 12.6 µM,
Cn1ncc(Cl)c1C(=O)NCc1ccc(Cl)cc1,,inactive: -24.4%
N#CC(C(=O)NCc1ccco1)c1nc2ccccc2nc1N1CCOCC1 (stereo unspecified),"inconclusive: 12.6 µM [inhibitor, partial curve]",
CSc1ccc(C2C(C#N)=C(N)N(c3ccccc3)C3=C2C(=O)CCC3)cc1 (stereo unspecified),"inconclusive: 35.5 µM [inhibitor, single point]",
CC(C)(C)c1csc(NC(=O)c2ccc(Cl)s2)n1,active: 8.91 µM,
CC(=O)c1cccc(NC(=O)c2ccc(NS(=O)(=O)c3c(C)noc3C)cc2)c1,,inactive: 18.3%
Cc1cc(C(=O)CCC(=O)N2CCN(S(=O)(=O)c3cccs3)CC2)c(C)s1,,inactive: -4.36%
CCc1nnc(NC(=O)CSc2nnc(-c3ccccc3OC)n2-c2ccc(C)cc2)s1,"inconclusive: 0.891 µM [activator, full curve, poor fit]",
COc1cc(C(=O)Nc2oc(-c3ccccc3)c(-c3ccccc3)c2C#N)cc(OC)c1OC,"inconclusive: 10 µM [inhibitor, partial curve]",
COc1cc2c(cc1OC)CN(CCC(=O)c1ccc(Br)cc1)CC2,,inactive: 5.78%
COc1cccc(/C=N/n2c(C)nc3ccccc3c2=O)c1O,"inconclusive: 35.5 µM [inhibitor, single point]",
Cc1onc(-c2ccccc2Cl)c1C(=O)NC(=S)NCC(=O)c1ccccc1,,inactive: -4.21% [at 9.22 µM]
O=C(CSc1nnnn1-c1ccc(Cl)cc1)NC(=O)Nc1ccc2c(c1)OCCO2,,inactive: -1.48%
Cc1ccc(/C=C2\SC(=S)N(CCCC(=O)Nc3nccs3)C2=O)cc1,"inconclusive: 0.199 µM [activator, full curve, poor fit]",

# Quoted from above for reference:
Compound,Potency,"activity change, negative = inhibition"
COc1cc(C(=O)Nc2oc(-c3ccccc3)c(-c3ccccc3)c2C#N)cc(OC)c1OC,"inconclusive: 10 µM [inhibitor, partial curve]",
COc1cc2c(cc1OC)CN(CCC(=O)c1ccc(Br)cc1)CC2,,inactive: 5.78%
COc1cccc(/C=N/n2c(C)nc3ccccc3c2=O)c1O,"inconclusive: 35.5 µM [inhibitor, single point]",
Cc1onc(-c2ccccc2Cl)c1C(=O)NC(=S)NCC(=O)c1ccccc1,,inactive: -4.21% [at 9.22 µM]
O=C(CSc1nnnn1-c1ccc(Cl)cc1)NC(=O)Nc1ccc2c(c1)OCCO2,,inactive: -1.48%

# Following part.

Compound,Potency,"activity change, negative = inhibition"
N=c1c2c(n(Cc3ccc(Br)cc3)c3c1CCC3)CCCC2,"inconclusive: 11.2 µM [inhibitor, partial curve]",
Cn1c(SCC(=O)N/N=C/c2ccco2)nc2ccccc21,"inconclusive: 0.562 µM [activator, full curve, poor fit]",
CCC(C)[C@H](NC(=O)NCC1CCCO1)C(=O)OC (stereo partly specified),"inconclusive: 1.26 µM [inhibitor, single point]",
CCOC(=O)c1sc(/N=C/c2ccc(O)cc2O)cc1C,,inactive: 0.111%
Cc1cc(C)cc(NC(=O)C(=S)NCc2ccccc2)c1,,inactive: -9.05%
Cc1ccc(S(=O)(=O)NCC(c2ccccc2)N2CCCCC2)cc1 (stereo unspecified),,inactive: -16.7% [at 9.22 µM]
c1ccc(OCc2nnnn2-c2ccccc2)cc1,"inconclusive: 3.16 µM [inhibitor, single point]",
O=C1CC(c2ccco2)Cc2nc(Nc3ccc(F)cc3)ncc21 (stereo unspecified),"inconclusive: 35.5 µM [inhibitor, single point]",
Cc1cc(C)nc(SCCC(=O)Nc2ccccc2C)n1,"inconclusive: 31.6 µM [activator, single point]",
Cc1ccc(C)c(N2CCN(C(=O)c3ccc(CS(=O)(=O)c4ccccc4C)o3)CC2)c1,active: 28.2 µM,
O=C(c1ccc(Cl)c([N+](=O)[O-])c1)N1CCN(c2ccccn2)CC1,,inactive: -17.1%
Cc1ccc(-n2c(CNc3ccc(F)cc3)nnc2SCC(N)=O)cc1,active: 22.4 µM,
CCCCNC(=O)COC(=O)c1cc(Br)ccc1Cl,"inconclusive: 0.794 µM [inhibitor, single point]",
COc1ccc(-n2ncc3c(N4CCN(Cc5ccccc5)CC4)ncnc32)cc1,"inconclusive: 35.5 µM [inhibitor, single point]",
Cn1cc(Br)cc2nc(C(F)(F)F)nc1-2,"inconclusive: 1 µM [inhibitor, full curve, poor fit]",
CCn1c(-c2cc(OC)c(OC)c(OC)c2)n[nH]c1=S,"inconclusive: 35.5 µM [activator, single point]",
CSc1ccc(/C=C/c2ccc3cccc(O)c3n2)cc1,"inconclusive: 35.5 µM [inhibitor, single point]",
O=C(COCc1nc2ccccc2c(=O)[nH]1)NCC1CCCCC1,,inactive: -10.7%
CC1CCN(C(=O)c2ccc(S(=O)(=O)Cc3cc(F)ccc3F)c([N+](=O)[O-])c2)CC1,"inconclusive: 35.5 µM [inhibitor, single point]",
Cc1cc(N2CCCCC2)nc(SCc2ccc(C#N)cc2)n1,"inconclusive: 12.6 µM [inhibitor, single point]",
O=C(C1CCCN(S(=O)(=O)c2ccc(Br)s2)C1)N1CCCCCC1 (stereo unspecified),"inconclusive: 25.1 µM [inhibitor, single point]",
Cc1nn(C)c(Oc2ccccc2)c1CCNS(=O)(=O)c1ccc(F)cc1,"inconclusive: 17.8 µM [inhibitor, partial curve]",
Cc1ccc2nc(SC(C)C(=O)NCc3ccc4c(c3)OCO4)[nH]c2c1 (stereo unspecified),"inconclusive: 2.82 µM [inhibitor, single point]",
C[C@H](C(=O)O)c1n[nH]c(=O)c2ccccc12,,inactive: 8.9% [at 9.22 µM]

# Copied from the list:
# Under Potency, `CC1CCN(C(=O)c2ccc(S(=O)(=O)Cc3cc(F)ccc3F)c([N+](=O)[O-])c2)CC1` has the entry inconclusive: 35.5 µM [inhibitor, single point]
# Under Potency, `Cc1ccc(C)c(N2CCN(C(=O)c3ccc(CS(=O)(=O)c4ccccc4C)o3)CC2)c1` has the entry active: 28.2 µM

# Continued:

Compound,Potency,"activity change, negative = inhibition"
CCOc1ccc(Nc2nc(Cc3nnc(SCC(=O)NCC4CCCO4)n3C)cs2)cc1 (stereo unspecified),"inconclusive: 3.16 µM [inhibitor, single point]",
O=C(NC(NC(=S)N1CCOCC1)C(Cl)(Cl)Cl)c1ccc(Cl)cc1 (stereo unspecified),"inconclusive: 28.2 µM [inhibitor, single point]",
Cc1sc(NC(=O)c2ccc(=O)n(C)n2)nc1-c1ccccc1,"inconclusive: 10 µM [inhibitor, single point]",
Cc1ccc(-c2nc3sc4c(c3c(=O)n2N)CCCC4)cc1,"inconclusive: 35.5 µM [inhibitor, single point]",
CCOC(=O)c1c(C)[nH]c(C)c1C(=O)CSc1nc2ccccc2c(=O)n1-c1ccc(CC)cc1,"inconclusive: 25.1 µM [inhibitor, single point]",
Clc1ccc(-n2ncc3c(NCc4ccco4)ncnc32)cc1,"inconclusive: 22.4 µM [inhibitor, single point]",
COc1ccc(Cc2nnc(N/N=C/c3ccc(O)cc3)[nH]c2=O)cc1OC,active: 1.12 µM,
CCN1C(=O)c2cccc3c(NC(=O)c4ccccc4)ccc1c23,"inconclusive: 8.91 µM [activator, partial curve]",
O=C(NC(=S)Nc1ccccc1N1CCCC1)c1ccc(F)cc1,"inconclusive: 3.55 µM [inhibitor, single point]",
CCC(=O)N1CCc2cc(S(=O)(=O)NCCC(=O)NC3CCCc4ccccc43)ccc21 (stereo unspecified),,inactive: 2.17%
CCOC(=O)/C=C(\C)Sc1cc(=O)oc2ccccc12,,inactive: 7.95%
O=C(Oc1nsnc1N1CCOCC1)N1CCOCC1,,inactive: 3.03%
OC(CNC1CCCc2ccccc21)COc1c(Cl)cccc1Cl (stereo unspecified),"inconclusive: 20 µM [inhibitor, single point]",
OCC1(Cc2ccccc2)CCN(Cc2cnc(-c3ccc(Cl)cc3)nc2)CC1,,inactive: -3.53% [at 9.22 µM]
COc1ccccc1S(=O)(=O)Cc1ccc(C(=O)N2CCN(c3cccc(Cl)c3)CC2)o1,"inconclusive: 15.8 µM [inhibitor, single point]",
CCCc1cc(=O)[nH]c(Nc2ccc(Cl)cc2)n1,"inconclusive: 28.2 µM [inhibitor, single point]",
COc1ccc(N/N=C/c2c(C(=O)O)ccc3ccccc23)cc1,,inactive: -33.5% [at 9.22 µM]
Cc1cc(NS(=O)(=O)c2ccc(Nc3nc(-c4sc(NC(=O)c5ccccc5)nc4C)cs3)cc2)no1,"inconclusive: 35.5 µM [inhibitor, single point]",
CCc1nc(OCc2ccco2)c2sc3nc4c(cc3c2n1)COC(C)(C)C4,"inconclusive: 12.6 µM [activator, single point]",
CCC(C(=O)O)C1OC(C(C)C(O)C(C)C(=O)C(CC)C2OC3(C=CC(O)C4(CCC(C)(C5CCC(O)(CC)C(C)O5)O4)O3)C(C)CC2C)C(C)CC1C (stereo unspecified),active: 1.78 µM,
Nc1ncn(C2C[C@H](O)[C@@H](CO)O2)c(=O)n1 (stereo partly specified),,inactive: -3.75%
CC(=O)CSc1nc2ccc(Nc3nc(N4CCOCC4)nc(N4CCOCC4)n3)cc2s1,"inconclusive: 35.5 µM [inhibitor, single point]",
c1ccc(CNc2ncnc3c2cnn3-c2ccccc2)cc1,,inactive: -1.03%
